{"source": "patent US8598339B2", "about": "“Withanolide isolated from Physalis longifolia and analogs and methods of use thereof” (University of Kansas, priority 2011, dated 2013)", "key": {"SUP-B15 Ph+ ALL cells": {"tested_on": "SUP-B15 Ph+ ALL cells", "experiment": "MTS assay, SUP-B15", "format": "cell-based", "conditions": "Homo sapiens", "procedure": "(§1) Cell proliferation was analyzed using MTS assay and Trypan Blue exclusion. Annexin V-FITC/Propidium Iodide flow cytometry was used to analyze the induction of apoptosis in SUP-B15 cells after treatment with anolides. Cell cycle analysis was performed using propidium iodide flow cytometry. Modulation of BCR-ABL and downstream effector proteins was determined by western blot analysis. Syngery between withanolides and TKIs was evaluated using MTS viability to calculate combination indices. Apoptotic synergy was evaluated using Annexin V/PI."}, "normal MRC-5 fibroblasts": {"tested_on": "normal MRC-5 fibroblasts", "experiment": "MTS assay, normal MRC-5 fibroblasts (Example 7)", "format": "cell-based", "conditions": "Homo sapiens, MRC5", "procedure": "as §1\nAll Solanaceae-derived withanolides tested had IC50 values in the nanomolar range in SUP-B15 cells, and in the micromolar range in normal MRC-5 fibroblasts, indicating a large therapeutic index (Table 11)."}}, "data": [{"smiles": "Cc1ccc(NC(=O)c2ccc(CN3CCN(C)CC3)cc2)cc1Nc1nccc(-c2cccnc2)n1", "note": "[Imatinib]", "values": [{"measurement": "IC50", "setting": "SUP-B15 Ph+ ALL cells", "value": 0.208, "unit": "µM"}, {"measurement": "IC50", "setting": "normal MRC-5 fibroblasts", "value": 15.3, "unit": "µM"}]}]}
